In patent US20100240641A1, “Aldosterone Synthase and/or 11B-hydroxylase Inhibitors” (priority 2006, published 2010):
The match of structure and compound is tentative.

Amino acid sequences for entries named in this document (tags omitted). Residues count along the entry.
UniProt P19099, 25-503 limits assumed: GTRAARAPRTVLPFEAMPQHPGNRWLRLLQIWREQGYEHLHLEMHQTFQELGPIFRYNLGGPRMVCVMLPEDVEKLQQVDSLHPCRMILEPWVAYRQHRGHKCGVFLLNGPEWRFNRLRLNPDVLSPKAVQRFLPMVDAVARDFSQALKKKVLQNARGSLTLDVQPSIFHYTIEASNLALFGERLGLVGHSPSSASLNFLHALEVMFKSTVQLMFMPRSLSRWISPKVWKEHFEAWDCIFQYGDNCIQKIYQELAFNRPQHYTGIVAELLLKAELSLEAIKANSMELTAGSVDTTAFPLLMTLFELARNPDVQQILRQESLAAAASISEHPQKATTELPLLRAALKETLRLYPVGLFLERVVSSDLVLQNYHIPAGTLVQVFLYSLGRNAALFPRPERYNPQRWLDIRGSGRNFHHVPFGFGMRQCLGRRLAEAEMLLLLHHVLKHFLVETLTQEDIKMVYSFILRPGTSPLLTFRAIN

Biological target: aldosterone synthase (Homo sapiens, UniProt P19099)
Experiment: In vitro aldosterone synthase inhibition: aldosterone production in Ang II-stimulated NCI-H295R cells
Settings: read-out: AS IC50
Excerpt: In particular, the aldosterone synthase inhibitory activities in vitro can be determined by the following assay.
Human adrenocortical carcinoma NCI-H295R cell line is obtained from American Type Culture Collection (Manassas, Va.). Insulin/transferrin/selenium (ITS)-A supplement (100×), DMEM/F-12, antibiotic/antimycotic (100×), and fetal calf serum (FCS) are purchased from Gibco (Grand Island, N.Y.). Anti-mouse PVT scintillation proximity assay (SPA) beads and NBS 96-well plates are obtained from Amersham (Piscataway, N.J.) and Corning (Acton, Mass.), respectively. Solid black 96-well flat bottom plates were purchased from Costar (Corning; NY). Aldosterone and angiotensin (Ang II) are purchased from Sigma (St. Louis, Mo.). D[1,2,6,7-^3H(N)]aldosterone was acquired from PerkinElmer (Boston, Mass.). Nu-serum was a product of BD Biosciences (Franklin Lakes, N.J.). The NADPH regenerating system, dibenzylfluorescein (DBF), and human aromatase Supersomes® are obtained from Gentest (Woburn, Mass.).
For in vitro measurement of aldosterone activity, human adrenocortical carcinoma NCI-H295R cells are seeded in NBS 96-well plates at a density of 25,000 cells/well in 100 μl of a growth medium containing DMEM/F12 supplemented with 10% FCS, 2.5% Nu-serum, 1 μg ITS/ml, and 1× antibiotic/antimycotic. The medium is changed after culturing for 3 days at 37° C. under an atmosphere of 5% CO2/95% air. On the following day, cells are rinsed with 100 μl of DMEM/F12 and incubated with 100 μl of treatment medium containing 1 μM Ang II and a compound at different concentrations in quadruplicate wells at 37° C. for 24 hr. At the end of incubation, 50 μl of medium is withdrawn from each well for measurement of aldosterone production by an RIA using mouse anti-aldosterone monoclonal antibodies.
Measurement of aldosterone activity can also be performed using a 96-well plate format. Each test sample is incubated with 0.02 μCi of D-[1,2,6,7-^3H(N)]aldosterone and 0.3 μg of anti-aldosterone antibody in phosphate-buffered saline (PBS) containing 0.1% Triton X-100, 0.1% bovine serum albumin, and 12% glycerol in a total volume of 200 μl at room temperature for 1 hr. Anti-mouse PVT SPA beads (50 μl) are then added to each well and incubated overnight at room temperature prior to counting in a Microbeta plate counter. The amount of aldosterone in each sample is calculated by comparing with a standard curve generated using known quantities of the hormone.

| IC50 [nM] | Structure (SMILES) |
| --- | --- |
| 4 | CCCC1(c2ccc(C#N)cc2OC)C(=O)N(Cc2ccccc2)Cc2cncn21 (stereo not shown) |
| 41 | CCC1(c2ccc(C#N)cc2Cl)C(=O)N(Cc2ccccc2)Cc2cncn21 (stereo not shown) |
| 9 | CCCC1(c2ccc(C#N)cc2OC)C(=O)N(Cc2cccc(C)c2)Cc2cncn21 (stereo not shown) |
| 8 | CCCCC1(c2ccccc2OC)C(=O)N(Cc2ccc(F)cc2)Cc2cncn21 (stereo not shown) |
